# Experimental data: patent publication US12617835B2, “Chimeric autoantibody receptor (CAAR) that binds autoantibodies targeting the central nervous system in neurological autoimmune disease” (Deutsches Zentrum für Neurodegenerative Erkrankungen e. V. …, priority 2019, dated 2026)
# At least one compound was matched to its structure with a doubt left.
# Test system: Nalm6 target cells expressing NR1-reactive antibody #003-102
# Assay: Luciferase-assay of specific lysis of Nalm6 target cells, with or without Dasatinib
# Format: cell-based
# Details: 100 nM Dasatinib
# Procedure: For quantification of cell killing, Nalm6 target cells expressing NR1-reactive antibody #003-102 were incubated with CAAR T-cells at different Effector:Target (E:T) ratios ranging from 1:2 to 8:1 for 18 hours. Percentage of specific lysis was determined by reduction of bioluminescence in a Luciferase-assay.
# Results are depicted in FIG. 10.
smiles,measurement,value
"Cc1nc(Nc2ncc(C(=O)Nc3c(C)cccc3Cl)s2)cc(N2CCN(CCO)CC2)n1 [Dasatinib, reference compound]",effect on killing of target cells by CAAR T-cells,completely abolished
